Measured values from PubChem BioAssay AID330 (DTP/NCI, 2004).
The list does not hold the whole screen: it is rich in T/C values a quarter to a half above the control, in often repeated tests (any T/C) and in doses without a T/C. Further doses and runs are listed elsewhere. T/C is the treated group as % of the vehicle group. Some doses have a count of surviving animals in place of a T/C: the source holds a T/C of zero for them, seemingly a mark for toxic or unscored doses. Some doses without a T/C left all or most animals alive at the check, yet need not have been tolerated: survival well below the control is almost never listed, so the zero probably covers shortened survival too. Survivors were counted at the toxicity check, usually on the fifth day, unless a day is given; later deaths do not show. Schedule codes are those of the source, taken here to give the interval after Q, in days (D) or hours (H), and the number of doses after X. Some entries were tested several times; their values stand side by side, smallest first. Some structures stand for samples that the source files as different forms (salt, stereo form or complex); doses refer to the form tested. For survival time, the PubChem record calls one and a half times the control and up active, and a quarter to a half above the control has no call in these data; cut-offs in other NCI protocols can differ. Some T/C values carry the count of animals alive at the toxicity check (mostly the fifth day); where none is given, no animal had died by that day.

System: P388 leukemia ip, CD2F1 mice, survival T/C
Test: NCI In Vivo Anticancer Drug Screen. Data for tumor model P388 Leukemia (intraperitoneal) in CD2F1 (CDF1) mice
Conditions: T/C endpoint: median survival time, higher T/C = longer survival
[1] = dose: 200.0 mg/kg/injection, schedule: Q01DX009 (ip), vehicle: saline with Tween-80
[2] = dose: 10.0 mg/kg/injection, schedule: Q01DX009 (ip), vehicle: water
[3] = dose: 20.0 mg/kg/injection, schedule: Q01DX009 (ip), vehicle: water
[4] = dose: 25.0 mg/kg/injection, schedule: Q01DX009 (ip), vehicle: Klucel (hydroxypropylcellulose) (HPC)
[5] = dose: 40.0 mg/kg/injection, schedule: Q01DX009 (ip), vehicle: water
[6] = dose: 200.0 mg/kg/injection, schedule: Q01DX009 (ip), vehicle: Klucel (hydroxypropylcellulose) (HPC)
[7] = dose: 200.0 mg/kg/injection, schedule: Q01DX005 (ip), vehicle: saline
[8] = dose: 200.0 mg/kg/injection, schedule: Q01DX005 (ip), vehicle: saline with Tween-80
[9] = dose: 240.0 mg/kg/injection, schedule: Q01DX005 (ip), vehicle: saline
[10] = dose: 100.0 mg/kg/injection, schedule: Q01DX005 (ip), vehicle: saline with Tween-80
[11] = dose: 200.0 mg/kg/injection, schedule: Q01DX001 (ip), vehicle: saline
[12] = dose: 400.0 mg/kg/injection, schedule: Q01DX001 (ip), vehicle: saline

## Oc1ccc(CCl)c2cccnc12
dose: 100.0 mg/kg/injection, schedule: Q01DX009 (ip), vehicle: saline
  T/C: 130 % of control
dose: 200.0 mg/kg/injection, schedule: Q01DX009 (ip), vehicle: saline
  survivor count: 4 of 6 and 6 of 6
dose: 400.0 mg/kg/injection, schedule: Q01DX009 (ip), vehicle: saline
  survivor count: 0 of 6

## O=C(Cl)CC1CC(=O)OC1=O (stereo not drawn)
[1]
  survivor count: 2 of 6

## COc1ccc2cc3[n+](cc2c1OC)CCc1cc2c(cc1-3)OCO2
[2]
  T/C: 132 % of control
[3]
  survivor count: 3 of 6
[4]
  survivor count: 6 of 6
[5]
  survivor count: 0 of 6
dose: 50.0 mg/kg/injection, schedule: Q01DX009 (ip), vehicle: Klucel (hydroxypropylcellulose) (HPC)
  survivor count: 0 of 6
dose: 100.0 mg/kg/injection, schedule: Q01DX009 (ip), vehicle: Klucel (hydroxypropylcellulose) (HPC)
  survivor count: 0 of 6

## Cc1ccc2nc(N)nnc2c1
[6]
  survivor count: 1 of 6

## CC(=O)OC1CC2CCC3C(CCC4(C)C3CC([N+]3(C)CCCCC3)C4OC(C)=O)C2(C)CC1[N+]1(C)CCCCC1 (stereo not drawn)
dose: 0.1 mg/kg/injection, schedule: Q01DX009 (ip), vehicle: saline
  survivor count: 5 of 6
dose: 0.2 mg/kg/injection, schedule: Q01DX009 (ip), vehicle: saline
  survivor count: 1 of 6
dose: 0.4 mg/kg/injection, schedule: Q01DX009 (ip), vehicle: saline
  survivor count: 0 of 6
dose: 0.75 mg/kg/injection, schedule: Q01DX009 (ip), vehicle: saline
  survivor count: 0 of 6
dose: 1.5 mg/kg/injection, schedule: Q01DX009 (ip), vehicle: saline
  survivor count: 0 of 6
dose: 3.0 mg/kg/injection, schedule: Q01DX009 (ip), vehicle: saline
  survivor count: 0 of 6
dose: 12.5 mg/kg/injection, schedule: Q01DX009 (ip), vehicle: saline
  survivor count: 0 of 6
dose: 25.0 mg/kg/injection, schedule: Q01DX009 (ip), vehicle: saline
  survivor count: 0 of 6
dose: 50.0 mg/kg/injection, schedule: Q01DX009 (ip), vehicle: saline
  survivor count: 0 of 6

## Cc1nc(-c2nc(C(=O)NCCC[S+](C)C)cs2)cs1
dose: 100.0 mg/kg/injection, schedule: Q01DX005 (ip), vehicle: saline
  survivor count: 0 of 6
[7]
  survivor count: 0 of 6

## C=CC1=NC(C)(C)CC(C)O1 (stereo not drawn)
dose: 25.0 mg/kg/injection, schedule: Q01DX009 (ip), vehicle: water
  survivor count: 1 of 6

## C[n+]1c(-c2ccc(/C=N/NC(=O)c3ccc(C(=O)N/N=C/c4ccc(-c5cn6ccccc6[n+]5C)cc4)c(O)c3O)cc2)cn2ccccc21
[8]
  survivor count: 0 of 6

## COC1=C(C)C(=O)c2[nH]c(Cl)c(C=O)c2C1=O
dose: 400.0 mg/kg/injection, schedule: Q01DX001 (ip), vehicle: saline with Tween-80
  survivor count: 2 of 6

## CC(C)NC(=O)OCc1c(COC(=O)NC(C)C)c(-c2ccc(Cl)c(Cl)c2)n2c1CC(OC(=O)CN(C)C)C2 (stereo not drawn)
[2]
  T/C: 128 % of control
dose: 20.0 mg/kg/injection, schedule: Q01DX009 (ip), vehicle: distilled water + Tween-80
  T/C: 141 % of control
[3]
  T/C: 146 % of control
dose: 40.0 mg/kg/injection, schedule: Q01DX009 (ip), vehicle: distilled water + Tween-80
  T/C: 141 % of control
[5]
  T/C: 144 % of control
dose: 80.0 mg/kg/injection, schedule: Q01DX009 (ip), vehicle: distilled water + Tween-80
  T/C: 140 % of control

## COCCOCCN1CCN(CCCN2c3ccccc3Sc3ccc(C(F)(F)F)cc32)CC1
dose: 6.0 mg/kg/injection, schedule: Q04DX003 (ip), vehicle: saline
  survivor count: 1 of 6
dose: 25.0 mg/kg/injection, schedule: Q04DX003 (ip), vehicle: saline
  T/C: 127 % of control

## CCCCCCOC(=O)C(N)Cc1ccc(N(CCCl)CCCl)cc1 (stereo not drawn)
dose: 1.6 mg/kg/injection, schedule: Q03HX008 (ip), vehicle: saline
  T/C: 140 % of control

## CSc1nc(C)c(C(=O)CCN2CCOCC2)s1
[9]
  survivor count: 0 of 6

## CSc1cccc(NC(=O)Nc2ccc(S(N)(=O)=O)cc2)c1
[6]
  survivor count: 6 of 6

## CCCN(CCNc1cc(OC)cc2cccnc12)C(C)CC (stereo not drawn)
[7]
  survivor count: 0 of 5

## CC(=O)/C(=C\c1ccccc1F)C(=O)CCN(C)C
[9]
  survivor count: 3 of 6

## COc1cc2ccc3c4cc(OC)c(OC)cc4c[n+](C)c3c2cc1O
dose: 200.0 mg/kg/injection, schedule: Q04DX009 (ip), vehicle: Klucel (hydroxypropylcellulose) (HPC)
  T/C: 136 % of control [2 of 3 alive]

## NC(CCC(=O)NC(CSC(c1ccccc1)(c1ccccc1)c1ccccc1)C(=O)NCC(=O)O)C(=O)O (stereo not drawn)
dose: 480.0 mg/kg/injection, schedule: Q01DX005 (ip), vehicle: Klucel (hydroxypropylcellulose) (HPC)
  survivor count: 2 of 6

## CCCCCCCCSc1nc(Nc2cc(C(C)(C)C)c(O)c(C(C)(C)C)c2)nc(SCCCCCCCC)n1
dose: 100.0 mg/kg/injection, schedule: Q01DX009 (ip), vehicle: saline with Tween-80
  survivor count: 6 of 6

## COc1ccc2c(c1)NC(=O)Cn1nnnc1-2
dose: 100.0 mg/kg/injection, schedule: Q04DX002 (ip), vehicle: saline with Tween-80
  survivor count: 6 of 6
dose: 200.0 mg/kg/injection, schedule: Q04DX002 (ip), vehicle: saline with Tween-80
  survivor count: 5 of 6

## CCCCCCCCCCCCCCCC[N+]1(CC)CCOCC1 (tested in a mixture with another compound)
[4]
  survivor count: 6 of 6

## CCOC(=O)Nc1cc2c(c(N)n1)N=C(c1ccc(C)cc1C)CN2
dose: 10.0 mg/kg/injection, schedule: Q01DX005 (ip), vehicle: saline with Tween-80
  T/C: 131 % of control
dose: 13.0 mg/kg/injection, schedule: Q01DX005 (ip), vehicle: saline with Tween-80
  T/C: 134 % of control
dose: 20.0 mg/kg/injection, schedule: Q01DX005 (ip), vehicle: saline with Tween-80
  T/C: 136 % of control
dose: 30.0 mg/kg/injection, schedule: Q01DX005 (ip), vehicle: saline with Tween-80
  T/C: 145 % of control

## CC1(C)OCC(C2OC3OC(C)(C)OC3C2OP(=O)(N2CC2)N2CC2)O1 (stereo not drawn)
[1]
  T/C: 133 % of control

## CN(CCC1(C)C(=O)CCc2ccccc21)Cc1ccccc1 (stereo not drawn)
[10]
  survivor count: 0 of 5
[8]
  survivor count: 0 of 5

## [CH3][Sn]([CH3])([CH3])[O]C(=O)CNC(=O)c1ccccc1
dose: 6.25 mg/kg/injection, schedule: Q01DX001 (ip), vehicle: Klucel (hydroxypropylcellulose) (HPC)
  survivor count: 0 of 6
dose: 100.0 mg/kg/injection, schedule: Q01DX001 (ip), vehicle: saline
  survivor count: 0 of 6
[11]
  survivor count: 0 of 6
[12]
  survivor count: 0 of 6

## O=S(=O)(C(Br)S(=O)(=O)C(F)(F)C(F)(F)C(F)(F)C(F)(F)F)C(F)(F)C(F)(F)C(F)(F)C(F)(F)F
[11]
  survivor count: 4 of 6
[12]
  survivor count: 0 of 6

## COc1ccc(C(=O)CCN(C)C)c(OC)c1
dose: 120.0 mg/kg/injection, schedule: Q01DX005 (ip), vehicle: saline
  survivor count: 4 of 6
[9]
  survivor count: 0 of 6

## Cc1ccc(=O)c2ccsc2c1
dose: 400.0 mg/kg/injection, schedule: Q04DX003 (ip), vehicle: Klucel (hydroxypropylcellulose) (HPC)
  survivor count: 0 of 6

## COc1cc(O)c(C(C)c2ccccc2)cc1N=NC(N)=O (stereo not drawn)
dose: 50.0 mg/kg/injection, schedule: Q01DX005 (ip), vehicle: saline with Tween-80
  survivor count: 6 of 6
[10]
  survivor count: 6 of 6
[8]
  survivor count: 6 of 6

## C=C1C2CC[C@H]3C4(C)CCCC(C)(C(=O)O)[C@H]4CCC3(C2)[C@@H]1OC(C)=O (stereo partly drawn)
dose: 3.5 mg/kg/injection, schedule: Q01DX005 (ip), vehicle: Klucel (hydroxypropylcellulose) (HPC)
  survivor count: 6 of 6
dose: 7.0 mg/kg/injection, schedule: Q01DX005 (ip), vehicle: Klucel (hydroxypropylcellulose) (HPC)
  survivor count: 6 of 6
dose: 14.0 mg/kg/injection, schedule: Q01DX005 (ip), vehicle: Klucel (hydroxypropylcellulose) (HPC)
  survivor count: 6 of 6
dose: 28.0 mg/kg/injection, schedule: Q01DX005 (ip), vehicle: Klucel (hydroxypropylcellulose) (HPC)
  survivor count: 6 of 6

## CSc1ccc(SC)c2c1C(=O)c1c(SC)ccc(SC)c1C2=O
[1]
  survivor count: 5 of 6
